Earlier results in patent publication US11458106B2, “Lipid nanoparticles comprising lipophilic anti-inflammatory agents and methods of use thereof” (ASTRAZENECA AB, priority 2016, dated 2022).
At least one structure is not confirmed: it was looked up by name or label, or the drawing left a doubt.

Tested on: inflammatory mRNAs
Conditions: pre-treatment one hour prior to administration of LNP201; cited from earlier work

C[C@@H]1C[C@H]2[C@@H]3CCC4=CC(=O)C=C[C@]4(C)[C@@]3(F)[C@@H](O)C[C@]2(C)[C@@]1(O)C(=O)CO [dexamethasone]
inhibition of inflammatory mRNAs induced by LNP201: partially inhibited inflammatory mRNAs
